# Measurements: PubChem BioAssay AID2685 (National Center for Advancing Translational Sciences (NCATS), 2010)
# This is one part of the list. Shown are side measurements of this screen, not its main read-out; they come without a call. Most of these compounds were active or inconclusive in the main read-out, so they are no random draw. Potencies come from curve fits of mixed quality, noted in brackets.
# Experiment: qHTS Assay for Lipid Storage Modulators in Drosophila S3 Cells;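 on cell number change: cells counted by Cell Tracker Red CMTPX staining in the red channel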
# Conditions: BODIPY lipid droplet fluorescence, 18-24 h; for cell number change: measured here: cell count max response, cells fed with added oleic acid
# Method in brief: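 Drosophila S3 cells loaded with oleic acid (400 uM, as added) and compounds at several concentrations; lipid droplets imaged by 488-nm laser-scanning cytometry, 500–530 nm intensity and object ratio to cell channel. Percent activity normalized to 20 uM Triacsin C.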
# [1] = measured here: lipid fluorescence (Fed channel) AC50, cells fed with added oleic acid
# [2] = measured here: cell number channel AC50, cells fed with added oleic acid
SMILES,cell number change [%],AC50 [1],AC50 [2]
C=CCn1c(SCC(=O)c2ccc(O)c(O)c2)nnc1-c1cccc(OC)c1,-4.79,,
COc1ccc(/C=C\c2onc(C)c2S(=O)(=O)N2CCC(C(=O)NCCC(C)C)CC2)cc1,-41.2,,
C1=CCC(/C=N/n2cnnc2)CC1 (stereo not given),-20.9,"0.0461 µM [falling, full curve, poor fit]",
COc1ccc(C2=NOC(C(=O)NCc3ccccc3)C2)cc1 (stereo not given),-20.8,"7.31 µM [falling, partial curve, poor fit]",
Cc1cccn2c(=O)c(/C=C(\C#N)C(N)=O)c(N3CCCCCC3)nc12,,,"5.8 µM [falling, single point]"
Cc1ccc(-n2nnnc2/C=C\Nc2cc(C)on2)cc1,22.4,"6.51 µM [rising, partial curve]",
CC(SC1=NCCN1S(C)(=O)=O)c1ccccc1 (stereo not given),-18.6,"0.731 µM [falling, single point]",
CCN(C(=O)CN1CCN(c2ccccc2F)CC1)c1c(N)n(Cc2ccccc2)c(=O)[nH]c1=O,28,,"5.17 µM [rising, full curve, poor fit]"
Cc1ccc(C(C)C)c(OCCN(C)C)c1,44.6,,"29.1 µM [rising, single point]"
O=C(COc1ccccc1)NCC1(N2CCCCC2)CCCCC1,-76.7,"2.06 µM [falling, partial curve]","2.06 µM [falling, partial curve]"
CNS(=O)(=O)c1cccc(C(=O)OCC(=O)Nc2ccc(-c3nc4ccc(C)cc4s3)cc2)c1,20.1,,
CCN(CC)S(=O)(=O)c1ccc2[nH]cc(C(=O)NCCN3CCCCCC3)c(=O)c2c1,-23.4,"2.91 µM [rising, full curve]",
Cc1cc(C)nc(Nc2n[nH]c(COc3ccc4ccccc4c3)n2)n1,-7.82,"1.64 µM [rising, partial curve]","1.84 µM [rising, partial curve]"
Cc1occc1-c1nnc(SCC(=O)Nc2ccc(F)cc2)n1C,-30.8,"10.3 µM [falling, partial curve]",
O=S(=O)(NCCN1CCOCC1)c1ccc(F)c(Cl)c1,25.2,,
Cc1cccc2sc(NC(=O)c3cc(S(=O)(=O)N(C)C)ccc3N3CCCC3)nc12,13.5,,
COc1ccc(CC(=O)NNC(=O)c2cccnc2)cc1OC,-24.8,"6.51 µM [falling, single point]","2.59 µM [falling, single point]"
N#CCSc1nnc(COc2ccc3ccccc3c2)o1,86.9,"16.4 µM [rising, partial curve]","16.4 µM [rising, partial curve]"
Cc1sc2cc3c(c(C(=O)c4ccccc4)[n+]2c1C)-c1cccc2cccc-3c12,-59.8,"2.31 µM [falling, full curve]","11.6 µM [falling, partial curve]"
O=C(CCn1c(=O)c2cccn2c2cccnc21)NCc1cccc(Cl)c1,-21.1,"1.64 µM [falling, partial curve]",

SMILES,cell number change [%],AC50 [1],AC50 [2]
Cc1ccc(S(=O)(=O)N2CCOCC2)cc1-c1n[nH]c(=S)n1-c1ccccc1,-6.25,"0.0731 µM [falling, partial curve, poor fit]",
Cc1c(N=Nc2c(-c3ccc([N+](=O)[O-])cc3)[nH]n(C(N)=S)c2=O)cccc1[N+](=O)[O-],22.5,"4.61 µM [falling, partial curve]",
Cc1ccc(NC(=O)c2nnn(CC(=O)Nc3ccc4c(c3)OCO4)c2N)cc1C,13.1,,
Cc1cc(Cl)ccc1OCCCC(=O)N/N=C/c1cccc([N+](=O)[O-])c1,39.3,"5.8 µM [rising, partial curve]","10.3 µM [rising, partial curve]"
Cc1ccc(N(CC(=O)NC2CC2)S(=O)(=O)c2ccccc2)c(C)c1,-11.4,"0.0651 µM [rising, full curve, poor fit]",
CN(C)S(=O)(=O)c1ccc(S(=O)(=O)Nc2ccc3c(c2)oc2ccccc23)cc1,,"0.82 µM [rising, full curve]",
O=C(COC(=O)c1cccnc1Cl)Nc1ncc(Cl)cc1Cl,20.6,"2.31 µM [rising, full curve, poor fit]",
CC(=O)C1=C(C)Nc2cc(C(F)(F)F)ccc2S1,-6.35,"0.13 µM [falling, full curve, poor fit]",
COc1ccc(NC(=O)C(=O)NCCC2CCCCN2S(=O)(=O)c2ccccc2)cc1 (stereo not given),0.9,"23.1 µM [falling, single point]",
CC(C)/C=C1\CCCCC1N(C)C(=O)NC(C)C (stereo not given),-10.8,,"0.461 µM [rising, single point]"
O=C1N=C(c2ccccc2)S/C1=C\c1cccs1,,"6.51 µM [rising, single point]","2.59 µM [rising, single point]"
O=C(O)c1cc(-c2ccc(/C=C3\NC(=O)N(c4ccc(Cl)cc4)C3=O)o2)ccc1Cl,-49.6,"32.6 µM [falling, partial curve, poor fit]","29.1 µM [falling, single point]"
COc1ccc(/C=C2\Sc3ccc(C(=O)NC4CC4)cc3N(C)C2=O)cc1OC,,"4.11 µM [falling, partial curve]","4.11 µM [falling, single point]"
CCOCc1c(C(=O)OCC(=O)NCc2ccc(F)cc2)oc2ccccc12,-40.6,,"0.0058 µM [falling, full curve, poor fit]"
CC(C)(C)c1ccc(C(=O)N2CCNC(=O)C2CC(=O)Nc2ccc(F)cc2)cc1 (stereo not given),11.8,"0.731 µM [rising, single point]",
O=C(CN1C(=O)NC2(CCCC2)C1=O)NCCN1C(=O)S/C(=C\c2ccccc2F)C1=O,91,,"0.00517 µM [rising, full curve, poor fit]"
c1ccc2nc3[nH]cnc3nc2c1,2.09,,
CCOc1ccccc1N(CC(=O)N1CCOCC1)S(=O)(=O)c1ccc(SC)cc1,-90,,"23.1 µM [falling, partial curve]"
Oc1cccc2ccc(/C=C/c3ccccc3Cl)nc12,62.4,,"0.58 µM [falling, single point]"
CC1CCN(Cc2c(C(=O)N3CCc4ccccc4C3)nc3ccc(Cl)cn23)CC1,35.4,,"29.1 µM [rising, single point]"

# Sorted by formula weight (rising): 4 of the compounds above.
SMILES,cell number change [%],AC50 [1],AC50 [2]
Oc1cccc2ccc(/C=C/c3ccccc3Cl)nc12,62.4,,"0.58 µM [falling, single point]"
C=CCn1c(SCC(=O)c2ccc(O)c(O)c2)nnc1-c1cccc(OC)c1,-4.79,,
O=C(O)c1cc(-c2ccc(/C=C3\NC(=O)N(c4ccc(Cl)cc4)C3=O)o2)ccc1Cl,-49.6,"32.6 µM [falling, partial curve, poor fit]","29.1 µM [falling, single point]"
CCOc1ccccc1N(CC(=O)N1CCOCC1)S(=O)(=O)c1ccc(SC)cc1,-90,,"23.1 µM [falling, partial curve]"

# Carrying on.

SMILES,cell number change [%],AC50 [1],AC50 [2]
CCCSc1nsc(NC(=O)Nc2ccc(F)cc2F)n1,-31.5,"5.17 µM [falling, full curve]","8.2 µM [falling, partial curve, poor fit]"
Cc1ccc(N(C(=O)c2ccc(Br)o2)C2C=CS(=O)(=O)C2)cc1 (stereo not given),-8.98,"32.6 µM [rising, partial curve, poor fit]",
CCCCNC(=O)OCCSCCS(=O)(=O)c1ccc(Cl)cc1,7.14,"0.103 µM [falling, full curve, poor fit]",
O=C(Nc1cc(C(F)(F)F)ccc1-n1cncn1)C1CC1,4.5,,
Cc1noc(C)c1CS(=O)(=O)c1ccc(Br)cc1,22.6,"0.58 µM [rising, single point]",
COC(=O)N/N=C\c1ccc(-c2cc(Cl)c(Cl)cc2Cl)o1,10.5,"0.651 µM [rising, full curve]",
CCC(=O)Nc1cccc(-c2nnc(-c3cccc(NC(=O)CC)c3)o2)c1,11,"1.64 µM [rising, partial curve]","1.3 µM [rising, partial curve]"
COc1ccc(S(N)(=O)=O)cc1C(=O)NC1CCCc2ccccc21 (stereo not given),-24.6,"29.1 µM [rising, single point]",
CCOc1ccc(CCNC(=O)c2cccc(S(=O)(=O)N3CCOCC3)c2)cc1OCC,2.2,"29.1 µM [falling, single point]",
OCCN(Cc1ccccc1)CC1CCCCC1,-2.92,"2.06 µM [falling, partial curve, poor fit]","2.31 µM [rising, single point]"
Cc1ccc(C(=O)COC(=O)CCCC(=O)NC2CCCCC2)cc1[N+](=O)[O-],6.03,,
CCOC(=O)N1CCC(NC(=O)Cn2nc(Cc3ccncc3)c3ccccc3c2=O)CC1,-41,"32.6 µM [falling, partial curve]","32.6 µM [falling, partial curve, poor fit]"
COc1cccc(/C=N/NC(=O)c2cc3c(OC)cccc3[nH]2)c1O,,,"6.51 µM [falling, single point]"
CCOc1ccc(N(C(=O)c2ccc(S(=O)(=O)N3CCCC3)cc2)C2C=CS(=O)(=O)C2)cc1 (stereo not given),-4.31,,
CN(CC(=O)Oc1ccc(-c2nnco2)cc1)S(=O)(=O)c1ccc(F)cc1,-4.5,"0.13 µM [falling, full curve, poor fit]",
O=C(CSc1nnc(-c2cccnc2)s1)Nc1ccnc2ccccc12,-52.8,"4.11 µM [falling, partial curve]","3.26 µM [falling, partial curve]"
COc1cc(NC(=O)c2ccccc2OCc2ccccc2)cc(OC)c1OC,6.48,"25.9 µM [falling, single point]",
Fc1ccc(CO/N=C2\CCCc3nonc32)cc1,-59.5,"32.6 µM [falling, partial curve, poor fit]",
